# Library screen at single concentrations

Sequences of proteins named here, by UniProt entry; tags and fusion partners are left off. Residues count along the entry.
UniProt Q4DA54, 1-478: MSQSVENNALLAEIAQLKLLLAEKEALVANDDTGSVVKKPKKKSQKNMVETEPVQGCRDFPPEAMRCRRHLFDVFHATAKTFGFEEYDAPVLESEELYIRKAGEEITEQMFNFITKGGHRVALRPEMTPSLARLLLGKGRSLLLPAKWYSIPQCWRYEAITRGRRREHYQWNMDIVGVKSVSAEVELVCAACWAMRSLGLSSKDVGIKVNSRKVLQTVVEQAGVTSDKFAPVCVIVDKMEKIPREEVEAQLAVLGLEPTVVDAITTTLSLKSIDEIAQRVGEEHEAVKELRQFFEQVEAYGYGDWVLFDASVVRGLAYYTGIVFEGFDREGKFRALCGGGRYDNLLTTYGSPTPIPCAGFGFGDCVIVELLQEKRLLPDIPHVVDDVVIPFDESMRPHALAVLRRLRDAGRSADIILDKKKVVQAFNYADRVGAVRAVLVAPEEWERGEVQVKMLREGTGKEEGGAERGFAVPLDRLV
UniProt P9WNZ1, whole entry: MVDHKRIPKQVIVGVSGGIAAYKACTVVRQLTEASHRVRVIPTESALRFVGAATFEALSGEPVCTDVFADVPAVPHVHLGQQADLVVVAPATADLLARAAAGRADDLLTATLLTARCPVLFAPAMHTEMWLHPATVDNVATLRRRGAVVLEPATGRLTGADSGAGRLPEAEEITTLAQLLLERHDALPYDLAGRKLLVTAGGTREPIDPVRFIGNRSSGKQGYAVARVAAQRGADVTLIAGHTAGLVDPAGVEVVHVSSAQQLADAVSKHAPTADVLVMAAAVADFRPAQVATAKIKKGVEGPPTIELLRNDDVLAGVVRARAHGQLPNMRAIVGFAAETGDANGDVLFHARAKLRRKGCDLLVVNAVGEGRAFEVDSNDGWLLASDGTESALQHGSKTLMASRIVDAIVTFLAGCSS

TcHisRS: 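Enzyme assay of histidyl-tRNA synthetase; the read-out is not stated. Target: Histidine-tRNA ligase, Trypanosoma cruzi CL Brener (UniProt Q4DA54). Compounds at 30 µM. Direction is inferred from retests: higher values go with stronger inhibition. About 69,000 compounds were tested under these conditions; 0.045% (about 31) showed 50% or more at least once.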
CoaBC: 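Enzyme assay of CoaBC with a phosphate dye (Biomol Green) read at 650 nm. Target: Coenzyme A biosynthesis protein CoaBC, Mycobacterium tuberculosis (UniProt P9WNZ1). Compounds at 30 µM. Higher reads as stronger inhibition, judged from the few compounds that gave an IC50. Most strong results did not repeat in a second test. Of about 67,000 compounds tested this way, about 40 (0.06%) reached 50% or more in at least one test.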

The filed quantity is “Percent Effect” (%). The record does not define 0% and 100%; most values in the screen are far below 50% and negative numbers occur (in some assays of this library far below -100). This is an unselected part of the compounds tested. Two or more numbers in one place are separate tests of the same structure; such repeats can differ widely. A dash means the value is not listed here; it may have been measured.

| SMILES | TcHisRS | CoaBC |
|---|---|---|
| `Cc1cccc(NC(=O)N2CCN(Cc3noc(C4CC4)n3)CC2)c1` | 0 | -2.672 |
| `Cc1noc(CN2CCN(CC(C)O)CC2)n1` (stereo not drawn) | -1.604 | -0.207 |
| `Cn1cccc1C(=O)N1CCO[C@@H]2CN(Cc3nccs3)C[C@@H]2C1` | 0 | -1.733 |
| `CN1CCC(N2CCN(C(C(=O)O)c3cccc4c3OCC4)CC2)CC1` (stereo not drawn) | 6.122 | -4.104 |
| `Cn1c(-c2ccccc2Cl)nc2cc(C(=O)NCCS(C)(=O)=O)cnc21` | 4.651 | 9.442 |
| `CCN(CC)c1nc2ccsc2c(=O)n1CCC(=O)NC1CCCC1` | 10.88 | -2.806 |
| `Cc1sc(Br)cc1S(=O)(=O)NCCN` | -1.538 | 0.7453 |
| `Cc1cc(F)cc(S(=O)(=O)Nc2noc(C)n2)c1` | 0.5952 | -3.532 |
| `COc1c(Br)cc(Br)cc1CNC(C)Cn1cccn1` (stereo not drawn) | 5.344 | 0.241 |
| `Cc1nc(-c2ccnn2C)cc(C2CCCN(S(C)(=O)=O)C2)n1` (stereo not drawn) | 1.13 | -3.632 |
| `c1ccc(CN2CCCC[C@H]3CN(c4ncccn4)C[C@H]32)cc1` | 11.63 | 4.54 |
| `CC(NC(=O)CN1CCCC1=O)c1ccc(Cl)s1` (stereo not drawn) | 7.563 | -0.8065 |
| `CNS(=O)(=O)c1ccc(CNC(=O)N(C)CC(C)C)cc1` | 3.067 | 3.969 |
| `CC(C)Cn1ccnc1CNC(=O)NC(C)c1nccs1` (stereo not drawn) | 8.28 | - |
| `O=C(c1cccc2c1OCO2)N1CCCC1Cn1cccn1` (stereo not drawn) | 1.132 | 6.923 |
| `CC(NC(=O)NCCCn1cncn1)c1ccc2c(c1)CC(=O)N2` (stereo not drawn) | 7.289 | 4.359 |
| `COc1ccccc1OCc1cc(C(=O)N2CCC(C(C)O)CC2)n[nH]1` (stereo not drawn) | 11.64 | 2.17 |
| `Cn1nnc2c1C(COCC1CC1)CN(C(=O)CC1=CCCCC1)C2` (stereo not drawn) | 5.155 | 3.695 |
| `COc1cccc(C2CC(=O)Nc3c2cnn3C(C)(C)C)c1` (stereo not drawn) | 7.273 | 1.022 |
| `COc1cc2nc3n(c(=O)c2cc1OC)CCN(C(=O)C1CCC1)CC3` | 10.99 | 2.67 |
| `O=C(c1ccnnc1)N1C[C@H](Oc2cccnc2)[C@H]2OCCC[C@H]21` | 3.743 | -13.04 |
| `Cc1csc(CNc2ccc(-c3nc(C4CC4)no3)cn2)n1` | 4.516 | 4.348 |
| `Cc1ccc(OCC(=O)NC2CCN(S(C)(=O)=O)CC2)cc1` | 2.564 | -4.29 |
| `c1cc(CN2CC[C@H]3CO[C@H](CN4CCOCC4)[C@H]3C2)cs1` | -3.738 | -2.963 |
| `CSc1ccc(NCC(=O)NCC(=O)N2CCCC2)cc1F` | 6.024 | 2.228 |
| `COC(=O)c1cccc(C(=O)N(C)Cc2cccc(F)c2)c1` | 11 | -1.157 |
| `CCN1CCCC1CNC(=O)Cc1c(-c2ccc(Cl)cc2)n[nH]c1C` (stereo not drawn) | 4.124 | 5.67 & 37.26 |
| `COCCn1c(C(=O)NC(C(N)=O)C(C)C)cc2ccccc21` (stereo not drawn) | 9.091 | -3.043 |
| `CC(Cc1c(F)cccc1F)NC(=O)NCc1ncnn1C` (stereo not drawn) | 5.682 | -3.64 |
| `O=C(CN(Cc1cccs1)C1CCS(=O)(=O)C1)NC1CCCCC1` (stereo not drawn) | -7.006 | - |
| `CN1CCn2nc(-c3nc4ccccc4n3C)cc2C1` | 22.75 | 4.187 |
| `COc1nc2c(cc1C(=O)N1CCCOC(Cn3cccn3)C1)CCC2` (stereo not drawn) | 6.358 | 0.4963 |
| `CCN(Cc1noc(C)n1)C(=O)CC1C(=O)NCCN1CC(C)(C)C` (stereo not drawn) | 4 | -16.77 |
| `Cc1nc(S(=O)(=O)CCn2cccn2)n(C2CCCCC2)c1C` | 7.389 | -0.6329 |
| `Cc1cc(C(=O)N2CCCC2)ccc1NCC(=O)N1CCCCC1C` (stereo not drawn) | 2.857 | -0.9558 |
| `CN(C)S(=O)(=O)c1ccc(-c2nc(C#N)c(NC3CC3)o2)o1` | 10 | -2.663 |
| `Fc1cccc(F)c1Cn1c(C2CCCNC2)cc2cccnc21` (stereo not drawn) | 3.03 | -5.672 |
| `CCn1cnnc1C1CCN(C(=O)c2ccc(Cl)s2)CC1` | 0 | 2.828 |
| `CCc1cc(CN2CCCCC2c2ccc(F)cc2)on1` (stereo not drawn) | 8.036 | 4.151 |
| `CCOC(=O)c1coc(N2CCC(N3CCC(O)CC3)CC2)n1` | 7.143 | -2.122 |
| `CC(C)NCC1OCCc2cn(C)nc21` (stereo not drawn) | 1.149 | 10.04 |
| `CC(C)CN1C(=O)CO[C@@H]2CN(C(=O)[C@H]3CCCO3)C[C@H]21` | 3.226 | -6.977 |
| `CCOc1ccc(S(=O)(=O)NCCCc2ccc(N(C)C)cc2)cc1C` | 6.186 | 7.4 |
| `Cc1nc2cc(=O)[nH]n2c(C)c1CNC(=O)C(C)Cc1ccccc1` (stereo not drawn) | 12.1 | - |
| `Cc1cnn(CC2CCCCN2C(=O)Cn2nc(C)c(Cl)c2C)c1` (stereo not drawn) | 2.242 | 5.33 |
| `Cc1nc(C)n(CC2CCCN2CC(=O)NCCc2ccccc2)n1` (stereo not drawn) | 0 | 6.183 |
| `O=C(C1CC(c2ccccc2)=NO1)N1CCCCc2ccccc21` (stereo not drawn) | -9.821 | 5.409 |
| `Cc1c(C(=O)N2CCNC(=O)C2)sc2nc[nH]c(=O)c12` | 5.699 | 15.89 |
| `c1cc(CO[C@H]2CC[C@H]3[C@H]2OCCN3Cc2nccs2)ccn1` | 0 | 0.4938 |

From ChEMBL document CHEMBL3988442, “University of Dundee, Small-Polar-MMV Screening Library” (2021).